# According to the supplement of paper PMC8728848:
# Some of the results follow.
# Tests used:
# Experiment in all cases: glycan array binding signal (z-score within array); higher = stronger binding
# Details in all cases: glycan notation: IUPAC condensed, linker removed
# [1] = target: Fuc(a1-2)Gal(b1-4)GlcNAc(b1-3)Gal(b1-4)GlcNAc(b1-2)Man(a1-3)[Fuc(a1-2)Gal(b1-4)GlcNAc(b1-3)Gal(b1-4)GlcNAc(b1-2)Man(a1-6)]Man(b1-4)GlcNAc(b1-4)GlcNAc
# Summary of the method: (§1)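 Glycan array data came from 3228 arrays in the Consortium for Functional Glycomics database, and only arrays with an available protein sequence were kept. Glycan names were put into IUPAC-condensed notation, and columns mapping to the same glycan were averaged. The binding signal is a within-array Z-score, averaged across arrays of one protein sequence run at different concentrations or buffers and across linkers. A negative Z-score can be read as non-binding.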
# [2] = target: Fuc(a1-2)Gal(b1-4)GlcNAc(b1-3)Gal(b1-4)GlcNAc(b1-3)Gal(b1-4)GlcNAc
# Summary of the method: as §1
# [3] = target: Fuc(a1-2)Gal(b1-4)GlcNAc(b1-3)GalNAc
# Summary of the method: as §1
# [4] = target: Fuc(a1-2)Gal(b1-4)GlcNAc(b1-3)[Fuc(a1-2)Gal(b1-4)GlcNAc(b1-6)]GalNAc
# Summary of the method: as §1
# [5] = target: Fuc(a1-2)Gal(b1-4)GlcNAc(b1-3)[Fuc(a1-3)[Gal(b1-4)]GlcNAc(b1-6)]Gal(b1-4)Glc
# Summary of the method: as §1
# [6] = target: Fuc(a1-2)Gal(b1-4)GlcNAc(b1-6)GalNAc
# Summary of the method: as §1
# [7] = target: Fuc(a1-2)Gal(b1-4)GlcNAc6S
# Summary of the method: as §1
# [8] = target: Fuc(a1-2)Gal(b1-4)[Fuc(a1-3)]GlcNAc
# Summary of the method: as §1
# [9] = target: Fuc(a1-2)Gal(b1-4)[Fuc(a1-3)]GlcNAc(b1-2)Man(a1-3)[Fuc(a1-2)Gal(b1-4)[Fuc(a1-3)]GlcNAc(b1-2)Man(a1-6)]Man(b1-4)GlcNAc(b1-4)[Fuc(a1-6)]GlcNAc
# Summary of the method: as §1
# [10] = target: Fuc(a1-2)Gal(b1-4)[Fuc(a1-3)]GlcNAc(b1-2)[Fuc(a1-2)Gal(b1-4)[Fuc(a1-3)]GlcNAc(b1-4)]Man(a1-3)[Fuc(a1-2)Gal(b1-4)[Fuc(a1-3)]GlcNAc(b1-2)Man(a1-6)]Man(b1-4)GlcNAc(b1-4)GlcNAc
# Summary of the method: as §1
# [11] = target: Fuc(a1-2)Gal(b1-4)[Fuc(a1-3)]GlcNAc(b1-3)Gal(b1-4)[Fuc(a1-3)]GlcNAc
# Summary of the method: as §1
# [12] = target: Fuc(a1-2)Gal(b1-4)[Fuc(a1-3)]GlcNAc(b1-3)Gal(b1-4)[Fuc(a1-3)]GlcNAc(b1-3)Gal(b1-4)[Fuc(a1-3)]GlcNAc
# Summary of the method: as §1
# [13] = target: Fuc(a1-2)Gal(b1-4)[Fuc(a1-3)]GlcNAc(b1-3)GalNAc
# Summary of the method: as §1
# [14] = target: Fuc(a1-2)Gal(b1-4)[Fuc(a1-3)]GlcNAc(b1-3)[Neu5Ac(a2-6)Gal(b1-4)GlcNAc(b1-6)]Gal(b1-4)Glc
# Summary of the method: as §1
# [15] = target: Fuc(a1-2)Gal3S(b1-4)GlcNAc
# Summary of the method: as §1
# [16] = target: Fuc(a1-2)Gal6S(b1-3)GlcNAc
# Summary of the method: as §1
# [17] = target: Fuc(a1-2)Gal6S(b1-3)GlcNAc6S
# Summary of the method: as §1
# Fuc(a1-2)Gal6S(b1-4)Glc = target: Fuc(a1-2)Gal6S(b1-4)Glc
# Summary of the method: as §1
# [18] = target: Fuc(a1-2)Gal6S(b1-4)Glc6S
# Summary of the method: as §1
# Fuc(a1-2)[Gal(a1-3)]Gal = target: Fuc(a1-2)[Gal(a1-3)]Gal
# Summary of the method: as §1
# [19] = target: Fuc(a1-2)[Gal(a1-3)]Gal(b1-3)GalNAc
# Summary of the method: as §1
# [20] = target: Fuc(a1-2)[Gal(a1-3)]Gal(b1-3)GalNAc(b1-3)Gal(a1-4)Gal(b1-4)Glc
# Summary of the method: as §1
# [21] = target: Fuc(a1-2)[Gal(a1-3)]Gal(b1-3)GlcNAc
# Summary of the method: as §1
# [22] = target: Fuc(a1-2)[Gal(a1-3)]Gal(b1-3)GlcNAc(b1-2)Man(a1-3)[Fuc(a1-2)[Gal(a1-3)]Gal(b1-3)GlcNAc(b1-2)Man(a1-6)]Man(b1-4)GlcNAc(b1-4)GlcNAc
# Summary of the method: as §1
# [23] = target: Fuc(a1-2)[Gal(a1-3)]Gal(b1-3)GlcNAc(b1-2)Man(a1-3)[Fuc(a1-2)[Gal(a1-3)]Gal(b1-3)GlcNAc(b1-2)Man(a1-6)]Man(b1-4)GlcNAc(b1-4)[Fuc(a1-6)]GlcNAc
# Summary of the method: as §1
# [24] = target: Fuc(a1-2)[Gal(a1-3)]Gal(b1-3)GlcNAc(b1-3)GalNAc
# Summary of the method: as §1
# [25] = target: Fuc(a1-2)[Gal(a1-3)]Gal(b1-3)GlcNAc(b1-6)GalNAc
# Summary of the method: as §1
# [26] = target: Fuc(a1-2)[Gal(a1-3)]Gal(b1-4)Glc
# Summary of the method: as §1
# [27] = target: Fuc(a1-2)[Gal(a1-3)]Gal(b1-4)GlcNAc
# Summary of the method: as §1
# [28] = target: Fuc(a1-2)[Gal(a1-3)]Gal(b1-4)GlcNAc(b1-2)Man
# Summary of the method: as §1
# [29] = target: Fuc(a1-2)[Gal(a1-3)]Gal(b1-4)GlcNAc(b1-2)Man(a1-3)[Fuc(a1-2)[Gal(a1-3)]Gal(b1-4)GlcNAc(b1-2)Man(a1-6)]Man(b1-4)GlcNAc(b1-4)GlcNAc
# Summary of the method: as §1
# [30] = target: Fuc(a1-2)[Gal(a1-3)]Gal(b1-4)GlcNAc(b1-2)Man(a1-3)[Fuc(a1-2)[Gal(a1-3)]Gal(b1-4)GlcNAc(b1-2)Man(a1-6)]Man(b1-4)GlcNAc(b1-4)[Fuc(a1-6)]GlcNAc
# Summary of the method: as §1
# [31] = target: Fuc(a1-2)[Gal(a1-3)]Gal(b1-4)GlcNAc(b1-3)GalNAc
# Summary of the method: as §1
# [32] = target: Fuc(a1-2)[Gal(a1-3)]Gal(b1-4)GlcNAc(b1-3)[Fuc(a1-2)[Gal(a1-3)]Gal(b1-4)GlcNAc(b1-6)]GalNAc
# Summary of the method: as §1
# [33] = target: Fuc(a1-2)[Gal(a1-3)]Gal(b1-4)GlcNAc(b1-6)GalNAc
# Summary of the method: as §1
# [34] = target: Fuc(a1-2)[Gal(a1-3)]Gal(b1-4)[Fuc(a1-3)]Glc
# Summary of the method: as §1
# [35] = target: Fuc(a1-2)[Gal(a1-3)]Gal(b1-4)[Fuc(a1-3)]GlcNAc
# Summary of the method: as §1
# [36] = target: Fuc(a1-2)[Gal(a1-3)]Gal(b1-4)[Fuc(a1-3)]GlcNAc(b1-3)GalNAc
# Summary of the method: as §1
# [37] = target: Fuc(a1-2)[Gal(a1-4)]Gal(b1-4)GlcNAc
# Summary of the method: as §1
# [38] = target: Fuc(a1-2)[GalNAc(a1-3)]Gal
# Summary of the method: as §1
# [39] = target: Fuc(a1-2)[GalNAc(a1-3)]Gal(b1-3)GalNAc(a1-3)[Fuc(a1-2)]Gal(b1-4)GlcNAc
# Summary of the method: as §1
# [40] = target: Fuc(a1-2)[GalNAc(a1-3)]Gal(b1-3)GalNAc(b1-3)Gal(a1-4)Gal(b1-4)Glc
# Summary of the method: as §1
# [41] = target: Fuc(a1-2)[GalNAc(a1-3)]Gal(b1-3)GlcNAc
# Summary of the method: as §1
# [42] = target: Fuc(a1-2)[GalNAc(a1-3)]Gal(b1-3)GlcNAc(b1-2)Man(a1-3)[Fuc(a1-2)[GalNAc(a1-3)]Gal(b1-3)GlcNAc(b1-2)Man(a1-6)]Man(b1-4)GlcNAc(b1-4)GlcNAc
# Summary of the method: as §1
# [43] = target: Fuc(a1-2)[GalNAc(a1-3)]Gal(b1-3)GlcNAc(b1-2)Man(a1-3)[Fuc(a1-2)[GalNAc(a1-3)]Gal(b1-3)GlcNAc(b1-2)Man(a1-6)]Man(b1-4)GlcNAc(b1-4)[Fuc(a1-6)]GlcNAc
# Summary of the method: as §1
binder,measurement,setting,value
"CBP21 (Serratia marcescens), O83009 (protein) MNKTSRTLLSLGLLSAAMFGVSQQANAHGYVESPASRAYQCKLQLNTQCGSVQYEPQSVEGLKGFPQAGPADGHIASADKSTFFELDQQTPTRWNKLNLKTGPNSFTWKLTARHSTTSWRYFITKPNWDASQPLTRASFDLTPFCQFNDGGAIPAAQVTHQCNIPADRSGSHVILAVWDIADTANAFYQAIDVNLSK",glycan array binding signal (z-score),[1],1.84
same,glycan array binding signal (z-score),[2],-0.768
same,glycan array binding signal (z-score),[3],-0.128
same,glycan array binding signal (z-score),[4],-0.514
same,glycan array binding signal (z-score),[5],-0.523
same,glycan array binding signal (z-score),[6],2.2
same,glycan array binding signal (z-score),[7],-1.02
same,glycan array binding signal (z-score),[8],0.152
same,glycan array binding signal (z-score),[9],0.936
same,glycan array binding signal (z-score),[10],3.02
same,glycan array binding signal (z-score),[11],-0.08
same,glycan array binding signal (z-score),[12],2.95
same,glycan array binding signal (z-score),[13],2.2
same,glycan array binding signal (z-score),[14],0.974
same,glycan array binding signal (z-score),[15],0.542
same,glycan array binding signal (z-score),[16],-0.19
same,glycan array binding signal (z-score),[17],0.672
same,glycan array binding signal (z-score),Fuc(a1-2)Gal6S(b1-4)Glc,0.884
same,glycan array binding signal (z-score),[18],-0.162
same,glycan array binding signal (z-score),Fuc(a1-2)[Gal(a1-3)]Gal,-0.062
same,glycan array binding signal (z-score),[19],0.134
same,glycan array binding signal (z-score),[20],-1.6
same,glycan array binding signal (z-score),[21],0.005
same,glycan array binding signal (z-score),[22],-0.227
same,glycan array binding signal (z-score),[23],-0.105
same,glycan array binding signal (z-score),[24],0.688
same,glycan array binding signal (z-score),[25],1.32
same,glycan array binding signal (z-score),[26],0.719
same,glycan array binding signal (z-score),[27],0.785
same,glycan array binding signal (z-score),[28],0.499
same,glycan array binding signal (z-score),[29],1.68
same,glycan array binding signal (z-score),[30],-0.391
same,glycan array binding signal (z-score),[31],1.1
same,glycan array binding signal (z-score),[32],2.99
same,glycan array binding signal (z-score),[33],1.44
same,glycan array binding signal (z-score),[34],-1.78
same,glycan array binding signal (z-score),[35],0.488
same,glycan array binding signal (z-score),[36],-0.443
same,glycan array binding signal (z-score),[37],1.14
same,glycan array binding signal (z-score),[38],-0.049
same,glycan array binding signal (z-score),[39],0.456
same,glycan array binding signal (z-score),[40],0.463
same,glycan array binding signal (z-score),[41],1.07
same,glycan array binding signal (z-score),[42],0.241
same,glycan array binding signal (z-score),[43],-0.672

# Reprinted at random: 4 records from the list
binder,measurement,setting,value
"CBP21 (Serratia marcescens), O83009 (protein) MNKTSRTLLSLGLLSAAMFGVSQQANAHGYVESPASRAYQCKLQLNTQCGSVQYEPQSVEGLKGFPQAGPADGHIASADKSTFFELDQQTPTRWNKLNLKTGPNSFTWKLTARHSTTSWRYFITKPNWDASQPLTRASFDLTPFCQFNDGGAIPAAQVTHQCNIPADRSGSHVILAVWDIADTANAFYQAIDVNLSK",glycan array binding signal (z-score),[14],0.974
same,glycan array binding signal (z-score),[2],-0.768
same,glycan array binding signal (z-score),[9],0.936
same,glycan array binding signal (z-score),[40],0.463
